The list does not hold the whole screen: it gathers tests that were run many times, whatever their T/C, doses with no T/C, and many T/C values between a quarter and a half above the control. Other doses and runs of a compound stand elsewhere. T/C is the treated group as % of the vehicle group. Some doses have a count of surviving animals in place of a T/C: the source holds a T/C of zero for them, seemingly a mark for toxic or unscored doses. Some doses without a T/C left all or most animals alive at the check, yet need not have been tolerated: the source hardly ever lists a survival T/C far under the control, and the zero likely stands for such cases as well. Survivors were counted at the toxicity check, usually on the fifth day, unless a day is given; later deaths do not show. Schedules are NCI's codes, read here as Q, the interval in days (D) or hours (H), X, the number of doses. Some entries were tested several times; their values stand side by side, smallest first. For survival time, the PubChem record calls one and a half times the control and up active, and a quarter to a half above the control has no call in these data; cut-offs in other NCI protocols can differ. Counts like (3×) stand for listed records that agree.
System: P388 leukemia ip, CD2F1 mice, survival T/C
Test: NCI In Vivo Anticancer Drug Screen. Data for tumor model P388 Leukemia (intraperitoneal) in CD2F1 (CDF1) mice
Conditions: T/C endpoint: median survival time, higher T/C = longer survival
[1] = dose: 200.0 mg/kg/injection, schedule: Q01DX005 (ip), vehicle: saline
[2] = dose: 200.0 mg/kg/injection, schedule: Q01DX009 (ip), vehicle: saline
[3] = dose: 100.0 mg/kg/injection, schedule: Q01DX009 (ip), vehicle: saline with Tween-80
[4] = dose: 200.0 mg/kg/injection, schedule: Q01DX009 (ip), vehicle: saline with Tween-80
[5] = dose: 25.0 mg/kg/injection, schedule: Q01DX009 (ip), vehicle: saline
[6] = dose: 50.0 mg/kg/injection, schedule: Q01DX009 (ip), vehicle: saline
[7] = dose: 240.0 mg/kg/injection, schedule: Q01DX005 (ip), vehicle: saline
[8] = dose: 50.0 mg/kg/injection, schedule: Q01DX009 (ip), vehicle: Klucel (hydroxypropylcellulose) (HPC)

## [Cl][Pd][Cl].[NH-]C(CO)C(=O)O (stereo not given)
dose: 100.0 mg/kg/injection, schedule: Q01DX005 (ip), vehicle: saline
  survivor count: 3 of 6
[1]
  survivor count: 4 of 6

## C=C(C)c1nc(Oc2ccccc2)nc(Oc2ccccc2)n1
dose: 100.0 mg/kg/injection, schedule: Q01DX001 (ip), vehicle: Klucel (hydroxypropylcellulose) (HPC)
  survivor count: 6 of 6

## Clc1ncnc2c1ncn2C1CCCO1 (stereo not given)
[2]
  survivor count: 4 of 6

## NC(=O)CC1OC(=O)Cc2cc3c(c(O)c21)C(=O)c1c(O)cccc1C3=O (stereo not given)
dose: 12.0 mg/kg/injection, schedule: Q01DX009 (ip), vehicle: DMSO
  survivor count: 2 of 6

## CC(C)=CC[P+](CC[P+](CC=C(C)C)(c1ccccc1)c1ccccc1)(c1ccccc1)c1ccccc1
dose: 25.0 mg/kg/injection, schedule: Q01DX005 (ip), vehicle: saline with Tween-80
  survivor count: 0 of 5
dose: 50.0 mg/kg/injection, schedule: Q01DX005 (ip), vehicle: saline with Tween-80
  survivor count: 5 of 5
dose: 100.0 mg/kg/injection, schedule: Q01DX005 (ip), vehicle: saline with Tween-80
  survivor count: 5 of 5
dose: 200.0 mg/kg/injection, schedule: Q01DX005 (ip), vehicle: saline with Tween-80
  survivor count: 5 of 5

## CC(=O)C1=CC(C)(C)OC1=O
dose: 400.0 mg/kg/injection, schedule: Q04DX002 (ip), vehicle: saline with Tween-80
  survivor count: 3 of 6

## CC1=CC(C)=Nc2ccccc2N1
[2]
  survivor count: 6 of 6

## Nc1cc(=O)[nH]c(O)c1C(=O)O
dose: 50.0 mg/kg/injection, schedule: Q01DX009 (ip), vehicle: saline with Tween-80
  survivor count: 6 of 6
[3]
  survivor count: 5 of 6

## CCOC(=O)C[N+]12CCC34c5cc(OC)c(OC)cc5N5C(=O)CC6OCC=C(C1)C(CC32)C6C54 (stereo not given)
dose: 6.25 mg/kg/injection, schedule: Q01DX009 (ip), vehicle: saline with Tween-80
  T/C: 101, 110 (2×), 111, 123 % of control
dose: 12.5 mg/kg/injection, schedule: Q01DX009 (ip), vehicle: saline with Tween-80
  T/C: 101, 103, 109, 113, 119 % of control
[4]
  survivor count: 3 of 6

## C1=CN2C(c3ccccc3)=NN(c3ccccc3)[C@@H]2c2ccccc21
dose: 15.0 mg/kg/injection, schedule: Q01DX005 (ip), vehicle: saline with Tween-80
  survivor count: 6 of 6
dose: 30.0 mg/kg/injection, schedule: Q01DX005 (ip), vehicle: saline with Tween-80
  survivor count: 4 of 6
dose: 60.0 mg/kg/injection, schedule: Q01DX005 (ip), vehicle: saline with Tween-80
  survivor count: 1 of 6
dose: 120.0 mg/kg/injection, schedule: Q01DX005 (ip), vehicle: saline with Tween-80
  survivor count: 0 of 6
dose: 240.0 mg/kg/injection, schedule: Q01DX005 (ip), vehicle: saline with Tween-80
  survivor count: 0 of 6

## O=NNc1ccc(Sc2ccccc2)cn1
dose: 1.56 mg/kg/injection, schedule: Q01DX009 (ip), vehicle: saline
  T/C: 126 % of control
dose: 3.12 mg/kg/injection, schedule: Q01DX009 (ip), vehicle: saline
  T/C: 144 and 148 % of control
dose: 6.25 mg/kg/injection, schedule: Q01DX009 (ip), vehicle: saline
  T/C: 141 % of control
[5]
  survivor count: 3 of 6 and 4 of 6
[6]
  survivor count: 0 of 6

## NC(CSC(c1ccccc1)(c1ccccc1)c1ccc(Cl)cc1)C(=O)O (stereo not given)
dose: 100.0 mg/kg/injection, schedule: Q04DX003 (ip), vehicle: saline with Tween-80
  T/C: 140 % of control

## CC(=O)c1ccc2c(c1)N(CCCN(C)C)c1ccccc1S2
dose: 12.5 mg/kg/injection, schedule: Q01DX009 (ip), vehicle: saline
  survivor count: 3 of 6
[5]
  survivor count: 3 of 6
[6]
  survivor count: 3 of 6
[2]
  survivor count: 1 of 6

## COC(C(=O)O)(c1ccccc1)C(F)(F)F (stereo not given)
[7]
  survivor count: 3 of 6

## CCC(=N)C(c1ccccc1)(c1ccccc1)C(C)CN(C)C (stereo not given)
dose: 60.0 mg/kg/injection, schedule: Q01DX005 (ip), vehicle: saline
  survivor count: 2 of 6
dose: 120.0 mg/kg/injection, schedule: Q01DX005 (ip), vehicle: saline
  survivor count: 0 of 6
[7]
  survivor count: 0 of 6

## CCCCCCC(=O)/C=C/c1cc(Cl)cc(Cl)c1OCOC
[8]
  survivor count: 6 of 6

## CCC1CN2CCc3cc(OC)c(OC)cc3C2C/C1=C/C(=O)O (stereo not given)
dose: 200.0 mg/kg/injection, schedule: Q01DX009 (ip), vehicle: suspension in saline
  survivor count: 0 of 6

## O=CNc1cccc(NC=O)c1
dose: 400.0 mg/kg/injection, schedule: Q01DX009 (ip), vehicle: distilled water + Tween-80
  survivor count: 0 of 6

## CN(C(=S)S(=O)(=O)C12CC3CC(CC(C3)C1)C2)c1ccccc1
dose: 12.5 mg/kg/injection, schedule: Q01DX009 (ip), vehicle: Klucel (hydroxypropylcellulose) (HPC)
  T/C: 127 % of control
dose: 25.0 mg/kg/injection, schedule: Q01DX009 (ip), vehicle: Klucel (hydroxypropylcellulose) (HPC)
  T/C: 128 % of control (2×)
[8]
  T/C: 141 % of control
  survivor count: 6 of 6
dose: 100.0 mg/kg/injection, schedule: Q01DX009 (ip), vehicle: Klucel (hydroxypropylcellulose) (HPC)
  survivor count: 0 of 6
dose: 200.0 mg/kg/injection, schedule: Q01DX009 (ip), vehicle: Klucel (hydroxypropylcellulose) (HPC)
  survivor count: 0 of 6

## COc1cc2c(cc1OC)[C@]13C[C@@H](OC)C=CC14OC4CN3CCC2 (stereo not given in full)
dose: 300.0 mg/kg/injection, schedule: Q01DX009 (ip), vehicle: saline with Tween-80
  survivor count: 0 of 4

## CS(=O)(=O)N/N=C/C(=O)O
dose: 25.0 mg/kg/injection, schedule: Q01DX009 (ip), vehicle: water
  T/C: 127 and 134 % of control
dose: 50.0 mg/kg/injection, schedule: Q01DX009 (ip), vehicle: water
  T/C: 126 % of control
dose: 200.0 mg/kg/injection, schedule: Q01DX009 (ip), vehicle: water
  survivor count: 3 of 6 and 4 of 6
dose: 400.0 mg/kg/injection, schedule: Q01DX009 (ip), vehicle: water
  survivor count: 0 of 6

## COc1ccc2cc1Oc1cc3c(cc1OC)CC[N+](C)(C)C3Cc1ccc(cc1)Oc1c(OC)c(OC)cc3c1C(C2)[N+](C)(C)CC3 (stereo not given)
dose: 0.62 mg/kg/injection, schedule: Q01DX009 (ip), vehicle: saline
  survivor count: 2 of 6
dose: 1.25 mg/kg/injection, schedule: Q01DX009 (ip), vehicle: saline
  survivor count: 0 of 6
dose: 2.5 mg/kg/injection, schedule: Q01DX009 (ip), vehicle: saline
  survivor count: 0 of 6
dose: 5.0 mg/kg/injection, schedule: Q01DX009 (ip), vehicle: saline
  survivor count: 0 of 6
dose: 10.0 mg/kg/injection, schedule: Q01DX009 (ip), vehicle: saline
  survivor count: 0 of 6
dose: 20.0 mg/kg/injection, schedule: Q01DX009 (ip), vehicle: saline
  survivor count: 0 of 6

## CN(C)CCCN1CN(CCCN(C)C)CN(CCCN(C)C)C1
[1]
  survivor count: 1 of 5

## Cc1cc(=O)c2c(C)nn(-c3ccccc3)c2[nH]1
dose: 60.0 mg/kg/injection, schedule: Q01DX005 (ip), vehicle: Klucel (hydroxypropylcellulose) (HPC)
  survivor count: 6 of 6
dose: 120.0 mg/kg/injection, schedule: Q01DX005 (ip), vehicle: Klucel (hydroxypropylcellulose) (HPC)
  survivor count: 6 of 6

## Cn1c(O)c(N=NC(N)=S)c2ccccc21
dose: 400.0 mg/kg/injection, schedule: Q04DX003 (ip), vehicle: saline with Tween-80
  survivor count: 3 of 6

## Cc1coc2c1C1OC(=O)C3(C/C=C\C(C)C2)OC13 (stereo not given)
dose: 45000.0 micrograms/kg/injection, schedule: Q01DX005 (ip), vehicle: Klucel (hydroxypropylcellulose) (HPC)
  survivor count: 6 of 6

## CCOC(=O)c1nc(Cl)nc(Cl)c1I
dose: 50.0 mg/kg/injection, schedule: Q01DX009 (ip), vehicle: distilled water + Tween-80
  survivor count: 4 of 6
dose: 100.0 mg/kg/injection, schedule: Q01DX009 (ip), vehicle: distilled water + Tween-80
  survivor count: 5 of 6
dose: 200.0 mg/kg/injection, schedule: Q01DX009 (ip), vehicle: distilled water + Tween-80
  survivor count: 0 of 6

## CCOc1ccccc1N=Cc1c2ccccc2cc2ccccc12
[3]
  survivor count: 5 of 6
[4]
  survivor count: 6 of 6
